From patent US6558918

How the values were obtained:
[1] = molecular target: Cdc2-AF/CyclinB1 complex, P06493
[2] = molecular target: wild-type Cdc2/cyclin B1 complex, P06493
[3] = molecular target: kinase-deficient Cdc2 mutant (K-) complexed with cyclin B1, P06493
[4] = molecular target: Cdk2/cyclin A complex, P24941
[5] = molecular target: Cdk2/cyclin E complex, P24941
[6] = molecular target: Cdk4/cyclin D1 complex, P11802

B1: truncated human Wee1 with N-terminal Glu-Glu tag, expressed in Sf9 cells (protein)
chain: MEYMPMEEVPGLNSAWSMDTEKSGKREFDVRQTPQVNINPFTPDSLLLHSSGQCRRRKRTYWNDSCGEDMEASDYELEDETRPAKRITITESNMKSRYTTEFHELEKIGSGEFGSVFKCVKRLDGCIYAIKRSKKPLAGSVDEQNALREVYAHAVLGQHSHVVRYFSAWAEDDHMLIQNEYCNGGSLADAISENYRIMSYFKEAELKDLLLQVGRGLRYIHSMSLVHMDIKPSNIFISRTSIPNAASEEGDEDDWASNKVMFKIGDLGHVTRISSPQVEEGDSRFLANEVLQENYTHLPKADIFALALTVVCAAGAEPLPRNGDQWHEIRQGRLPRIPQVLSQEFTELLKVMIHPDPERRPSAMALVKHSVLLSASRKSAEQLRIELNAEKFKNSLLQKELKKAQMAKAAAEERALFTDRMATRSTTQSNRTSRLIGKKMNRSVSLTIY
32P-labeling in a kinase reaction with affinity purified proteins, SDS-PAGE [1]: the Cdc2-AF mutant was not phosphorylated by Cell Growth Regulatory Protein or Wee1 | 32P-labeling in a kinase reaction with monomeric Cdc2 as substrate (monomeric Cdc2, P06493): it was capable of 32P-labeling monomeric Cdc2 | 32P-labeling in a kinase reaction with affinity purified proteins, SDS-PAGE [2]: both purified Cell Growth Regulatory Protein and Wee1 kinases were capable of phosphorylating wild-type Cdc2 as well as a kinase-deficient Cdc2 mutant (K-), each of which was complexed with cyclin B1 | 32P-labeling in a kinase reaction with the Cdc2/cyclin B1 complex reconstituted from monomers [2]: this phosphorylation was enhanced when the cyclin-bound form was reconstituted | 32P-labeling in a kinase reaction with affinity purified proteins, SDS-PAGE [3]: both purified Cell Growth Regulatory Protein and Wee1 kinases were capable of phosphorylating wild-type Cdc2 as well as a kinase-deficient Cdc2 mutant (K-), each of which was complexed with cyclin B1 | 32P-labeling in a kinase reaction with purified proteins [4]: Wee1 readily phosphorylated Cdk2 that was complexed with either cyclin A and cyclin E | 32P-labeling in a kinase reaction with purified proteins [5]: Wee1 readily phosphorylated Cdk2 that was complexed with either cyclin A and cyclin E | 32P-labeling in a kinase reaction with purified proteins [6]: neither Cell Growth Regulatory Protein nor Wee1 phosphorylated the Cdk4 subunit
